No constants are given. Whether binding was seen depends on the method and setting. Binding seen in cells or lysates may run through a third protein.

Amino acid sequences for entries named in this document (tags omitted). A change or cut given only in a name is not applied to a line headed by its entry. Chains listed by the source or under a name are the forms on record and can include a tag or linker. Residues count along the entry.
UniProt Q04206: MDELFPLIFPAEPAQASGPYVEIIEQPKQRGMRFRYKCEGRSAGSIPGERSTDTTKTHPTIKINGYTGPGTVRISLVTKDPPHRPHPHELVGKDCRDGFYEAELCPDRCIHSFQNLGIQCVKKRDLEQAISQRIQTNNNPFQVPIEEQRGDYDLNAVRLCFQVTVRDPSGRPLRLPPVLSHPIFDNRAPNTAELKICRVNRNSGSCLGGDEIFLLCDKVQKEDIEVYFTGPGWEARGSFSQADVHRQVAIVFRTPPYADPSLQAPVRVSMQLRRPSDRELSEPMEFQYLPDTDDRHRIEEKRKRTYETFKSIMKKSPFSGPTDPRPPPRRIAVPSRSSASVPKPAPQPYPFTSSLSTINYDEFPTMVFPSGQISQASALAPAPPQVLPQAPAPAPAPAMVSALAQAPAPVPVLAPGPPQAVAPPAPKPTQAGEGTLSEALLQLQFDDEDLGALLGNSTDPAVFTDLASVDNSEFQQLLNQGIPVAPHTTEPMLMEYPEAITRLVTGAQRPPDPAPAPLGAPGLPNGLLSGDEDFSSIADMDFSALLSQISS
GFP-tagged mutant p65 R198* (GFP-p65_R198*): residues 1-197 of Q04206
UniProt P19838, residues 1-433: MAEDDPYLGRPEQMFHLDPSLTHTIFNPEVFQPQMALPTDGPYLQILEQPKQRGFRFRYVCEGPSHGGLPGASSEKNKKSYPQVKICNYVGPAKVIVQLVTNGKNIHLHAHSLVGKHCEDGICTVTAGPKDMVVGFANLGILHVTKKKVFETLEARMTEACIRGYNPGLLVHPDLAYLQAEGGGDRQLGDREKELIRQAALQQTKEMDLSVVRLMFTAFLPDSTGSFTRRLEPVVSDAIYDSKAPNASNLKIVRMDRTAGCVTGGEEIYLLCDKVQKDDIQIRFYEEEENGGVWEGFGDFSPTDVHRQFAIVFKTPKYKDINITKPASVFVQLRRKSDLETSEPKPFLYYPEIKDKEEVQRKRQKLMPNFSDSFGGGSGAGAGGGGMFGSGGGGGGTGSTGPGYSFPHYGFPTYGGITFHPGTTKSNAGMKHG

The values below come from paper doi:10.1101/2025.11.09.687461.

For test [1], the target named is wild type p65 (RELA) (human (endogenous in HEK293T)) (UniProt Q04206). Nature of the test: co-IP.
The target in test [2] is GFP-tagged mutant p65 R198* (GFP-p65_R198*) (human) (UniProt Q04206). Nature of the test: co-IP.

Regarding “GFP-tagged mutant p65 R198* (GFP-p65_R198*) (from UniProt Q04206-1 1-197) (domain or fragment)”, in test [1], the binding entry is reported as “no binding”.

For “p50 (NF-kB1 p105/p50) (from UniProt P19838 1-433)”, the binding result in test [2] was “no binding”.
